This data set can be described thus: general procedure: Fmoc solid-phase peptide synthesis; 2-chlorotrityl resin; Rink resin; BOP/HOBt. The conditions noted are these: conjugation step.

The substance “Asn(Trt)-Gln(Trt)-Glu(tBu)-Gln(Trt)-Val-Ser(tBu)-Pro-Tyr(tBu)-Thr(tBu)-Leu-Leu-Lys(Boc)-Gly-Pn216” came in with a conjugation yield of 82%.

The values are drawn from patent US7049289B1 (Amersham PLC, priority 1998, dated 2006).
